Experimental data taken from PubChem BioAssay AID504648 (National Center for Advancing Translational Sciences (NCATS), 2011).
Hit rate of the full screen: of about 390,000 compounds, about 610 (0.16%) were called active. Inconclusive results, whose numbers are uncertain, are shown with a selection of clear calls. The call rests on the fitted dose curve; in most records, active means well fitted inhibition curve with a large enough effect; inconclusive means small, poorly fitted or top-dose-only effect, or effect the other way, or another doubt; inactive means no such curve, though single readings can be large or run the other way. Potencies beside an inconclusive call are fits to weak or partial responses and may not hold up.

Experiment: Nrf2 qHTS screen for inhibitors: counterscreen for cytotoxicity
Settings: A549 ARE-Fluc cells, CellTiter-Fluor viability, 18-24 h; activity change, negative = cytotoxicity: at 46 µM (top of the series)
Procedure, shortened: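 A549 ARE_Fluc cells in 5% FBS OPTI-MEM were exposed to compounds in concentration-response for 18-24 h at 37 deg C. Viability was read by CellTiter-Fluor fluorescence (Ex 405/Em 525) after 30 min, before the luciferase read.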
On the % scale 0 is the no-effect control and ±100 the full control effect; potency means the concentration at half of the fitted maximal effect.

Structure (SMILES)	Potency	activity change, negative = cytotoxicity
O=C(NNc1nc2ccc(Cl)cc2s1)c1cc(-c2cccs2)nc2ccccc12	inconclusive: 25.9 µM [falling, single point]	
COc1ccc(N)c2c1C(=O)c1ccccc1C2=O	inconclusive: 5.17 µM [falling, partial curve, poor fit]	
O=C(Nc1nc(-c2ccccc2)cs1)c1ccccc1NS(=O)(=O)c1ccc(F)cc1	inconclusive: 18.4 µM [falling, single point]	
O=C(CSc1nc2ccccc2o1)Nc1ccccc1N1CCCCCC1		inactive: -13.7%
Cc1ccc2c(c1)C(c1ccc(F)cc1)N(C(=O)COc1ccc(Cl)cc1Cl)CC(=O)N2 (stereo unspecified)	inconclusive: 23.1 µM [falling, partial curve, poor fit]	
O=C(NNC(=O)c1ccccc1Br)c1ccc(SCC2CCCO2)c([N+](=O)[O-])c1 (stereo unspecified)	inconclusive: 20.6 µM [falling, partial curve]	
O=C1CCCC(O)=C1N=Nc1cccc(C(=O)O)c1	inconclusive: 23.1 µM [falling, partial curve, poor fit]	
N#Cc1nc(COc2ccc(Br)cc2)oc1N1CCCCCC1	inconclusive: 8.2 µM [activator, partial curve, poor fit]	
CC(C)(Oc1ccc(Cl)cc1)C(=O)NC1=NN(c2ccccc2)C(=O)C1	inconclusive: 18.4 µM [falling, single point]	
CCc1ccc2nc(N(CCCN(C)C)C(=O)c3ccc(S(=O)(=O)N4CCCc5ccccc54)cc3)sc2c1	inconclusive: 29.1 µM [falling, partial curve, poor fit]	
CCOc1cc(/C=C\[N+](=O)[O-])ccc1OCC(=O)N1CCOCC1	inconclusive: 29.1 µM [falling, single point]	
COc1cccc(-n2nnnc2SCC(=O)Nc2ccc(OC)cc2OC)c1		inactive: -4.82%
CCN(CC)C(=O)CSC1=N/C(=C/c2ccco2)C(=O)N1c1ccc(OC)c(Cl)c1	inconclusive: 29.1 µM [falling, single point]	
Cn1c2c(c(=O)n(C)c1=O)C(C(F)(F)F)(C(F)(F)F)N=C(c1ccc(Cl)cc1)N2	active: 5.8 µM	
COc1ccc(-c2ccccc2[C@H]2[C@@H]3C=CC[C@@H](C)[C@@H]3C(=O)N2Cc2ccccc2)cc1	inconclusive: 29.1 µM [falling, single point]	
CCCc1nn2c(=O)cc(COC(=O)c3cccc(NC(=O)COc4ccccc4C)c3)nc2s1	inconclusive: 29.1 µM [falling, single point]	
C=CCNC(=O)c1cccc2c1C(=O)c1ccc(N3CCOCC3)cc1S2(=O)=O	inconclusive: 14.6 µM [falling, partial curve, poor fit]	
CN1/C(=C\C=N\O)C(C)(C)c2ccccc21		inactive: 0.383%
O=c1ccc(NS(=O)(=O)c2ccc(Cl)cc2)cn1Cc1ccc(Cl)c(Cl)c1	inconclusive: 9.2 µM [falling, single point]	
CCOC(=O)C1CCCN(/C=C2\SC(=S)N(CC)C2=O)C1 (stereo unspecified)	inconclusive: 9.2 µM [falling, partial curve]	
CCC1CN(C(=O)Nc2ccc(Br)cc2F)c2ccccc2S1 (stereo unspecified)	inconclusive: 2.91 µM [activator, full curve, poor fit]	
CCn1c(=O)c2sccc2n2c(CCCC(=O)NC3CCN(Cc4ccccc4)CC3)nnc12		inactive: 0%

Structure (SMILES)	Potency	activity change, negative = cytotoxicity
COc1ccc(NC(=O)Cn2c(=O)n(-c3cccc(C(F)(F)F)c3)c(=O)c3sccc32)cc1		inactive: 0.483%
Cc1ccc(C)c(N2CCN(CCCNC(=O)Cn3cc4c(n3)CCCCC4)CC2)c1	inconclusive: 18.4 µM [falling, partial curve, poor fit]	
COc1cc(OC)cc(C(=O)Nc2ccc3nc(Nc4cccc(C(F)(F)F)c4)cc(C)c3c2)c1	inconclusive: 23.1 µM [falling, partial curve, poor fit]	
COc1cc(OC)cc(C(=O)NNC(=O)c2ccc3ccccc3n2)c1	inconclusive: 18.4 µM [falling, partial curve]	
CC(C)NC[C@@H](O)COc1ccc(CC(N)=O)cc1	inconclusive: 1.64 µM [activator, partial curve, poor fit]	
COc1ccc(Nc2cc(C)nc3c(C)c(C)ccc23)cc1	inconclusive: 13 µM [falling, single point]	
Cc1ccc(NC(=O)CCn2ccc([N+](=O)[O-])n2)nc1	inconclusive: 25.9 µM [activator, partial curve, poor fit]	
CCCN(c1ccc(C(C)C)cc1)S(=O)(=O)c1ccc2c(c1)oc(=O)n2CC(=O)OCC		inactive: 1.84%
Cc1cc(-n2c(C)cc(C(=O)CSc3ncnc4ccccc34)c2C)no1	inconclusive: 8.2 µM [falling, partial curve, poor fit]	
CCOc1ccc(C(=O)NCC(c2ccco2)S(=O)(=O)c2cccs2)cc1 (stereo unspecified)		inactive: -0.5%
O=C(N/N=C/c1ccc([N+](=O)[O-])o1)C1CCCC1	inconclusive: 20.6 µM [falling, single point]	
COc1ccc(CNC(=O)c2ccc(C(C)(C)C)cc2)cc1		inactive: 1.18%
Cc1ccc(C(=O)N2CCN(Cc3nc4sc5c(c4c(=O)[nH]3)CCCC5)CC2)cc1		inactive: 0.859%
COc1cccc(CN2CCCC(C(=O)Nc3ccc(-c4cscn4)cc3)C2)c1 (stereo unspecified)	inconclusive: 29.1 µM [falling, single point]	
CCN(Cc1ccccc1)C(=O)c1nn(-c2ccc(OC)cc2)c(=O)c2c1c1ccccc1n2C	inactive	
Cc1cccc(Nc2nc(N)nc(CSC(=S)N3CCOCC3)n2)c1	inconclusive: 25.9 µM [activator, partial curve, poor fit]	
Fc1ccc(N2CCN(C3=Nc4cccc5cccc3c45)CC2)cc1	inconclusive: 20.6 µM [falling, partial curve, poor fit]	
O=C1CN(C(=O)CNC(=O)c2ccccc2Cl)c2ccccc2N1		inactive: 4.7%
CC1CCCCN1C(=O)C1CCN(c2nc(-c3ccccc3)nc3c2CCC3)CC1 (stereo unspecified)	inconclusive: 20.6 µM [falling, single point]	
O=C(NC(=S)Nc1nc2ccc(F)cc2s1)c1ccco1		inactive: -21.8%
C1CCN(CCCNC2C3CC4CC(C3)CC2C4)C1 (stereo unspecified)	inconclusive: 29.1 µM [falling, single point]	
CCOC(=O)c1scc(-c2ccc(C)cc2)c1S(=O)(=O)N1CCN(c2ccccc2F)CC1	inconclusive: 18.4 µM [activator, single point]	

Taken from above.
activity change, negative = cytotoxicity, CCOc1ccc(C(=O)NCC(c2ccco2)S(=O)(=O)c2cccs2)cc1 (stereo unspecified) is entered as inactive: -0.5%
activity change, negative = cytotoxicity, COc1ccc(CNC(=O)c2ccc(C(C)(C)C)cc2)cc1 is entered as inactive: 1.18%

Later entries.

Structure (SMILES)	Potency	activity change, negative = cytotoxicity
O=C(Cc1ccc(N2CCNC2=O)cc1)N1CCCC(Nc2cccc(F)c2)C1 (stereo unspecified)		inactive: 0.115%
O=C(N1CCOCC1)N1CCC(n2nnc3ccccc32)CC1	inconclusive: 23.1 µM [activator, partial curve, poor fit]	
O=C(CSc1nnc(CCc2ccccc2)n1-c1ccc(Cl)cc1)c1ccccc1	inconclusive: 29.1 µM [falling, single point]	
Cc1cc(C)cc(NC(=O)CCCn2c3ccccc3c(=O)c3ccccc32)c1	inconclusive: 29.1 µM [falling, single point]	
Cc1cc(Nc2cccc([N+](=O)[O-])c2)c2ccccc2n1		inactive: 0.543%
O=C(O)c1c(CNCc2cccc(F)c2)c2ccccc2n1Cc1ccccc1	inconclusive: 32.6 µM [falling, partial curve, poor fit]	
CC(=O)NC(C)c1cc(Cl)c2cccnc2c1O (stereo unspecified)		inactive: -1.95%
O=C(C1CCCN(S(=O)(=O)c2cccc3nsnc23)C1)N1CC=C(c2ccccc2)CC1 (stereo unspecified)	inconclusive: 18.4 µM [falling, partial curve, poor fit]	
COc1ccc(CCNC(=S)N2CCN(S(=O)(=O)c3ccccc3)CC2)cc1	inconclusive: 32.6 µM [falling, partial curve, poor fit]	
O=C(CN1CCN(Cc2ccccc2)CC1)N/N=C/C=C/c1ccccc1[N+](=O)[O-]		inactive: -4.02%
OCCO		inactive: -2.77%
COc1cc(/C=C2/SC(=S)NC2=O)ccc1OS(=O)(=O)c1ccc(C)cc1	inconclusive: 14.6 µM [falling, partial curve, poor fit]	
COc1ccc(-c2cc3ccc(O)c(CN4CCCC4)c3oc2=O)cc1	inconclusive: 29.1 µM [activator, partial curve, poor fit]	
Cc1cc2c(cc1C)N(C(=O)CSc1nncn1C)C(C)(C)c1ssc(=S)c1-2	inconclusive: 20.6 µM [falling, single point]	
CCOC(=O)C1=Nc2ccccc2C1=[N+]=[N-]	inconclusive: 23.1 µM [falling, single point]	
CCN(CC)S(=O)(=O)c1cccc(NC(=O)c2ccc(-n3nc(C)cc3C)cc2)c1	inconclusive: 20.6 µM [falling, single point]	
NS(=O)(=O)c1ccc(Nc2ccc3nonc3c2[N+](=O)[O-])cc1	inconclusive: 18.4 µM [falling, partial curve, poor fit]	
CC(C)Cc1ccc(CN2CCCC(NC(=O)c3cnc4ccccn4c3=O)C2)cc1 (stereo unspecified)	inconclusive: 18.4 µM [falling, single point]	
C=C(C)CNC(=S)N/N=C/c1ccco1		inactive: -1.25%
CCN(CC)C(=O)CSc1nc2ccc(NC(=O)CSc3nccn3C)cc2s1	inconclusive: 29.1 µM [falling, single point]	
NS(=O)(=O)c1ccc(N/N=C/c2ccccc2C(=O)O)c([N+](=O)[O-])c1	inconclusive: 23.1 µM [falling, partial curve, poor fit]	
CCOC(=O)C(=CNc1nc(-c2ccccc2)c(C(=O)Nc2ccc(-c3ccccc3)cc2)s1)C(=O)OCC		inactive: -11.3%
